Data on two molecules can be found in doi:10.1101/209262.

Protein sequences, listed by entry. Tags and fused reporters are not part of them. Residues count along the entry.
UniProt P26039, residues 1-433: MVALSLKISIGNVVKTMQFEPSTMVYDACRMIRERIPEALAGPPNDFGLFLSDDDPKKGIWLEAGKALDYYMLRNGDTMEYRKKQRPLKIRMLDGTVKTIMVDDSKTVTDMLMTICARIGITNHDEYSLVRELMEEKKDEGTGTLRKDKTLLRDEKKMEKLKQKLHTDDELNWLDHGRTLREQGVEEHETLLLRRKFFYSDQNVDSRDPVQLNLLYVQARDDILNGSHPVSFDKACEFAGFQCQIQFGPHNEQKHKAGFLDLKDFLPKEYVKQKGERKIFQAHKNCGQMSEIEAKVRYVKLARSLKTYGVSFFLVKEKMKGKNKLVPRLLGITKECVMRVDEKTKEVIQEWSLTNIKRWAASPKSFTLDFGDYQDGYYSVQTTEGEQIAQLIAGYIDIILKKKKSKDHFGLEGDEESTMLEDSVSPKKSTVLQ

For assay [1], the target named is GST-Fos-β1 integrin chimera (human). In words: ProLIF.
The target is the same in assay [2]. Description: ProLIF. The source holds these as a separate data set.
The target is the same in assay [3]. Description: ProLIF. This is another data set of the same source.
Assay [4] addresses MBP-Jun-α5 integrin chimera (human) (UniProt P08648). Description: co-IP.

Where two headings read alike, the source gives them in different places. Results are given in words; binding and its absence hold for the method and conditions named. Some binding calls cover weakened binding; strength is not graded here. For some of these results: Where a sequence is shown, tags or fusion partners need not be part of it.

“Talin FERM-EGFP (mouse talin1 residues 1-433) (from UniProt P26039 1-433) (domain or fragment)”: the binding entry in assay [1], in assay [2] and in assay [3] was “binds” each time.

B1: GST-Fos-β1 integrin chimera (protein)
chain: GSGGGASLDELEAEIEQLEEENYALEKEIEDLEKELEKLGAPGTGPDIIPIVAGVVAGIVLIGLALLLIWKLLMIIHDRREFAKFEKEKMNAKWDTGENPIYKSAVTTVVNPKYEGK
On to B1, for which the binding result in assay [4] is “binds”.
